Assay results from US7122382.
Results are given in words; binding and its absence hold for the method and conditions named. In cells and extracts the contact can be indirect. Some entries that bind do so weakly or less than the wild type.

Molecular target: T1, MB20 protein (function unknown, 2-10F) (mouse) (UniProt Q794H2)
T1 sequence (35S-methionine label or biotinylated lysine, by its role in the assay, looked up): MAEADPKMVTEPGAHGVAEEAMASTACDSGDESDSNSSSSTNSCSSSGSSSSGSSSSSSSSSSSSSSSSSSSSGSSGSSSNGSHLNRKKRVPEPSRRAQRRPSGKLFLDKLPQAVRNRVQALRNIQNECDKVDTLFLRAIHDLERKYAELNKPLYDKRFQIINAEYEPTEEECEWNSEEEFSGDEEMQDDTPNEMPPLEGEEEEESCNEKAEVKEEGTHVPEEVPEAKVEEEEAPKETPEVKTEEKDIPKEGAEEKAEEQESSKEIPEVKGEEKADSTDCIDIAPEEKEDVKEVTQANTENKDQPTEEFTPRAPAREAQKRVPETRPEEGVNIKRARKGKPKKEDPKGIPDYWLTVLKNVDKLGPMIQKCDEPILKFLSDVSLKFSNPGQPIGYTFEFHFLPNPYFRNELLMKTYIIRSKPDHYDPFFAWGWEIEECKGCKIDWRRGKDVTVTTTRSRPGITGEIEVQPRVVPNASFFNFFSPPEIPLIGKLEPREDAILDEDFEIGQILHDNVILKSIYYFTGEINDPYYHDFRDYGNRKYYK
Experiment: three-level pooled pull-down screen, streptavidin beads

- binding: binds
B1: Bpx protein (nucleosome assembly protein homologue) (2-1H) (protein, mouse, UniProt P51860 1-460, looked up)
chain: MAESVDHKELSESNQEELGSQVMAEGPGESQDRSEGVSIEPGDGGQHGEETVAAGVGEEGKGEEAAAGSGEDAGKCGGTDEDSDSDRPKGLIGYLLDTDFVESLPVKVKCRVLALKKLQTRAAHLESKFLREFHDIERKFAEMYQPLLEKRRQIINAVYEPTEEECEYKSDCEDYFEEEMDEEEETNGNEDGMVHEYVDEDDGYEDCYYDYDDEEEEEEEDDSAGATGGEEVNEEDPKGIPDFWLTVLKNVEALTPMIKKYDEPILKLLTDIKVKLSDPGEPLSFTLEFHFKPNEYFKNELLTKTYVLKSKLACYDPHPYRGTAIEYATGCDIDWNEGKNVTLRTIKKKQRHRVWGTVRTVTEDFPKDSFFNFFSPHGISLNGGDENDDFLLGHNLRTYIIPRSVLFFSGDALESQQEGVVREVNDEIYDKIIYDDWMAAIEEVKACCKNLEALVEDIDR
modifications: 35S-methionine label or biotinylated lysine, by its role in the assay
